# The list shows a part of the results. These are further read-outs of the screen, such as a control signal, another cell line or another target. No call is given for them. Compounds called inactive in the main read-out are mostly missing here. The note in brackets gives the kind of curve behind each potency; many fits are weak.
# Test: qHTS Assay for Lipid Storage Modulators in Drosophila S3 Cells;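 for cell number change: cells counted by Cell Tracker Red CMTPX staining in the red channel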
# Conditions: BODIPY lipid droplet fluorescence, 18-24 h; for cell number change: measured here: cell count max response, cells fed with added oleic acid
# Procedure, shortened: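 Drosophila S3 cells loaded with oleic acid (400 uM, as added) and compounds at several concentrations; lipid droplets imaged by 488-nm laser-scanning cytometry, 500–530 nm intensity and object ratio to cell channel. Percent activity normalized to 20 uM Triacsin C.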
# [1] = measured here: cell number channel AC50, cells fed with added oleic acid
# [2] = measured here: lipid fluorescence (Fed channel) AC50, cells fed with added oleic acid
SMILES,cell number change,AC50 [1],AC50 [2]
CCc1ccc2[nH]c(=O)c(C(c3nnnn3CCOC)N3CCN(c4ccccc4)CC3)cc2c1 (stereo not given),-5.18%,"0.13 µM [falling, full curve, poor fit]",–
CCOC(=O)C1CCCN(C(=O)c2sc3nc(-c4ccccc4)cn3c2C)C1 (stereo not given),-44.8%,"13 µM [falling, partial curve, poor fit]","0.0731 µM [falling, full curve, poor fit]"
Cc1ccc(N=c2c([N+](=O)[O-])nn(-c3ccccc3)n2O)c(C)c1,-24.8%,–,"2.31 µM [rising, partial curve]"
Cc1cc(C(C)(C)C)ccc1OCC(=O)N/N=C\c1c(C)n(C)n(-c2ccccc2)c1=O,33.3%,–,–
Cc1cc(C)c2cc(CN(CCCO)S(=O)(=O)c3ccccc3F)c(=O)[nH]c2c1,-3.75%,–,–
C=CCn1c(SCC(=O)Nc2ccc(C(=O)OC(C)C)cc2)nnc1-c1cccs1,9.87%,–,"3.66 µM [rising, partial curve]"
Cn1nc(C(F)(F)F)cc1-c1ccc(/C=C(\C#N)C(=O)c2ccccc2)s1,–,"0.0731 µM [falling, full curve, poor fit]","0.0651 µM [falling, full curve, poor fit]"
CCOC(=O)c1csc(NC(=O)CSc2nnnn2-c2cccc(OC)c2)n1,-3.02%,–,"0.231 µM [rising, full curve, poor fit]"
O=C(CS(=O)(=O)Cc1ccccc1)NCCc1ccc(F)cc1,13%,–,–
CC(=O)Cc1ccccc1OC(=O)c1ccco1,1.55%,–,"3.26 µM [falling, full curve]"
COc1ccc(CN2C(=O)CNC2=S)cc1,19.6%,–,–
CCCCCCCCCCCCCCCC[n+]1cccc(C(=O)N(CC)CC)c1,-81%,"18.4 µM [falling, partial curve]","14.6 µM [falling, partial curve, poor fit]"
CC1(C(=O)CSc2ncn[nH]2)CCC(=O)O1 (stereo not given),-56.9%,"7.31 µM [falling, partial curve]","1.16 µM [falling, full curve]"
CCOCCOc1cccc(C(=O)NC(c2ccccc2)c2ccccc2)c1,-2.2%,–,"14.6 µM [falling, single point]"
COc1ccc(-c2noc(CSc3nc(N)c(-c4ccccc4)c(=O)[nH]3)n2)cc1,–,"6.51 µM [falling, single point]","0.146 µM [falling, full curve, poor fit]"
O=C(O)/C(=C\c1ccc(F)cc1)c1ccc(-c2ccccc2)cc1,11.1%,–,–
Nc1nnc(CCC2CCCCC2)s1,8.57%,–,"0.0058 µM [falling, full curve, poor fit]"
C(=C\c1ccccc1)/CSc1nnc(-c2ccccn2)n1Cc1ccco1,–,–,"2.06 µM [rising, partial curve]"
Nc1ncc(Br)cc1S(=O)(=O)NCCC(=O)N1CCN(c2ccccc2)CC1,43.9%,"13 µM [rising, partial curve]","9.2 µM [rising, partial curve]"
Nc1nc(-c2ccccc2)cc(N2CCCCC2)n1,22.3%,"3.66 µM [rising, full curve, poor fit]",–
Cc1c(C(=O)N2CCC(C)CC2)sc2ncnc(N3CCN(c4ccccc4)CC3)c12,–,"1.16 µM [rising, partial curve]","1.46 µM [rising, partial curve]"

# Single records, as listed above:
# `O=C(CS(=O)(=O)Cc1ccccc1)NCCc1ccc(F)cc1` as listed: cell number change: 13%
# `Cc1cc(C)c2cc(CN(CCCO)S(=O)(=O)c3ccccc3F)c(=O)[nH]c2c1` as listed: cell number change: -3.75%
# `Cc1cc(C(C)(C)C)ccc1OCC(=O)N/N=C\c1c(C)n(C)n(-c2ccccc2)c1=O` as listed: cell number change: 33.3%
# `Nc1nc(-c2ccccc2)cc(N2CCCCC2)n1` as listed: cell number change: 22.3%; AC50 [1]: 3.66 µM [rising, full curve, poor fit]

# The list goes on.

SMILES,cell number change,AC50 [1],AC50 [2]
Cc1ccc2oc(=O)c3cc(C(=O)NCCCN4C(C)CCCC4C)sc3c2c1 (stereo not given),6.13%,–,"29.1 µM [rising, single point]"
CC1(C)CC(=O)C/C(=N/NC(=O)c2ccc(-c3ccccc3)cc2)C1,34.8%,"0.13 µM [rising, full curve, poor fit]",–
O=S(=O)(Nc1ccon1)c1ccc(F)c(F)c1,0.348%,–,"0.461 µM [falling, full curve, poor fit]"
Cc1ccc(CN2CCN(Cc3cnn(-c4ccc(F)cc4)c3)CC2CCO)o1 (stereo not given),30.1%,–,–
O=C(Nc1ccsc1C(=O)N1CCCC1)c1ccccc1,57.1%,"29.1 µM [rising, single point]","18.4 µM [rising, single point]"
COc1ccc(C(=O)CCN2CCN(c3ccc(OC)cc3)CC2)cc1,3.42%,–,–
COc1ccc(N2CCN(S(=O)(=O)c3c(C)n(C)c(=O)n(C)c3=O)CC2)cc1,1.17%,–,–
CCOc1ccc(NC(=S)N/N=C(\C)Cc2ccc(OC)cc2)cc1,4.16%,–,–
CC(C)(O)C#Cc1ccc(C(=O)N2CCC(C(N)=O)(N3CCCCC3)CC2)o1,-1.66%,–,"13 µM [rising, partial curve]"
CC(OC(=O)c1oc2ccccc2c1COc1ccccc1)C(=O)NC(N)=O (stereo not given),-12.1%,–,"0.146 µM [rising, full curve, poor fit]"
O=C(Nc1nn(Cc2ccc(Cl)cc2)cc1Br)c1ccc(COc2ccccc2Cl)o1,27.5%,–,"29.1 µM [rising, single point]"
COCCn1c(=S)[nH]c2cc(C(=O)N3CCN(Cc4ccc5c(c4)OCO5)CC3)ccc2c1=O,-19.1%,–,"2.31 µM [falling, partial curve, poor fit]"
COc1ccc(N=C2C(=O)Nc3ccccc32)cc1,1.21%,–,"6.51 µM [rising, single point]"
CC(C)(C)OC(=O)NCCCCCc1nnc(SCc2ccccc2F)o1,3.15%,–,"2.31 µM [rising, partial curve, poor fit]"
O=C(O)CC(NC(=O)OCc1ccccc1)c1ccccc1 (stereo not given),5.04%,–,–
Cc1ccc(OCCn2cnc(Cl)c2Cl)cc1,9.16%,–,"0.00411 µM [rising, full curve, poor fit]"
CCN1CCCC1CNC(=O)c1ccc(CS(=O)(=O)c2ccccc2C)o1 (stereo not given),-5.03%,–,–
CCN(c1ccccc1)S(=O)(=O)c1ccc(OC)c(NC(=O)CNC)c1,9.23%,"0.13 µM [falling, full curve, poor fit]",–
CCOc1ccccc1CN1CCCC(CNS(=O)(=O)c2ccc(OC)cc2)C1 (stereo not given),38.8%,"29.1 µM [rising, single point]","29.1 µM [rising, single point]"
COc1ccc(S(=O)(=O)N2CCCCC2)cc1NC(=O)c1cccnc1SC,-29.9%,–,"10.3 µM [falling, single point]"
Cc1ccc(SCC(=O)NC2CCS(=O)(=O)C2)cc1C (stereo not given),2.9%,–,"0.13 µM [falling, full curve, poor fit]"

SMILES,cell number change,AC50 [1],AC50 [2]
FC(F)(F)c1cc(Sc2ccccc2)nc(-c2ccccn2)n1,-28.1%,–,"0.00517 µM [falling, full curve, poor fit]"
CCOc1ccc(-n2nc3ccc(N)cc3n2)cc1,-1.75%,–,"7.31 µM [falling, full curve, poor fit]"
C=CCOc1cccc(C(=O)/C=C2/C(=O)Nc3ccccc32)c1,-67.7%,"29.1 µM [falling, single point]","29.1 µM [falling, single point]"
O=C(CSc1nnc(CNC(=O)c2ccccc2)o1)NCC1CCCO1 (stereo not given),-10.5%,–,"18.4 µM [falling, single point]"
CC(C)CC(=O)NC(=S)Nc1ccc(N2CCOCC2)c(Cl)c1,1.17%,–,–
O=C1CCC(C(=O)N(CCO)Cc2ccccc2)CN1CC1CCCCC1 (stereo not given),18.5%,–,"3.26 µM [falling, single point]"
COc1ccc(/C(O)=C2/C(=O)C(=O)N(CCN3CCNCC3)C2c2cccc([N+](=O)[O-])c2)cc1 (stereo not given),-2.38%,–,"0.58 µM [falling, single point]"
O=C(c1ccc(F)cc1)N1CCC(C(=O)N2CCN(S(=O)(=O)c3cccc(F)c3)CC2)CC1,18.3%,–,"29.1 µM [rising, single point]"
COC(=O)C1CC(O)CN1C(=O)Nc1cccc(C(F)(F)F)c1 (stereo not given),-18.2%,–,–
CC(=O)C1C(c2ccc(Cl)cc2)NC(=O)NC1(O)C(F)(F)F (stereo not given),-60.3%,"8.2 µM [falling, partial curve]","18.4 µM [falling, partial curve]"
COc1ccccc1C(=O)Nc1ccnn1C1CCN(C)CC1,17.7%,–,"0.58 µM [rising, single point]"
O=C(COC(=O)/C=C/c1cccc(C(F)(F)F)c1)NC1CCS(=O)(=O)C1 (stereo not given),3.36%,–,"3.26 µM [rising, single point]"
CCCOC(=O)c1cccc(NC(=O)C(C)(C)C)c1,–,–,"6.51 µM [falling, single point]"
CCOC(=O)CC(NC(=O)c1ccco1)c1ccc(OC)cc1 (stereo not given),36.9%,–,–
O=C(O)COc1ccc(/C=N/n2cnc3scc(-c4cccs4)c3c2=O)cc1,150%,"16.4 µM [rising, partial curve]","6.51 µM [rising, partial curve]"
COc1ccc(Cn2cc3c(-c4ccc(F)cc4)nnc-3c3cc(OC)c(OC)cc32)cc1,-80.7%,"13 µM [falling, partial curve]","7.31 µM [falling, partial curve]"
O=C(NCCNc1ccc([N+](=O)[O-])cc1)c1ccccc1F,-15.3%,–,–
Cn1c(CNC(=O)c2ccco2)nnc1SCCOc1ccccc1,21.4%,–,"1.64 µM [rising, full curve]"
O=C1Nc2ccccc2C(=O)N2[C@H](c3ccc(F)cc3)[C@@H]3C(=O)N(Cc4ccccc4)C(=O)[C@@H]3[C@H]12,-6.8%,–,"6.51 µM [rising, single point]"

# Source: PubChem BioAssay AID2685 (National Center for Advancing Translational Sciences (NCATS), 2010)
